Results reported in paper PMC9262236.
No constants are given. Whether binding was seen depends on the method and setting. In cells and extracts the contact can be indirect. Some results given as binding are weak or reduced against the parent protein; the word gives no strength.

The chains behind the UniProt entries cited, without tags or fusion partners.
UniProt P62491: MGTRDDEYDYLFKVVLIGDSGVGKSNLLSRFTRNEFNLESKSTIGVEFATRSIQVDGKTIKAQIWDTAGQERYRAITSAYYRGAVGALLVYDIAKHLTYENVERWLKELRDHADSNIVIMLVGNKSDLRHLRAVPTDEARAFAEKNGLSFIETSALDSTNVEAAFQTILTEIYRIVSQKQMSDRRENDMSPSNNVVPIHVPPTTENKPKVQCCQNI
UniProt P12579: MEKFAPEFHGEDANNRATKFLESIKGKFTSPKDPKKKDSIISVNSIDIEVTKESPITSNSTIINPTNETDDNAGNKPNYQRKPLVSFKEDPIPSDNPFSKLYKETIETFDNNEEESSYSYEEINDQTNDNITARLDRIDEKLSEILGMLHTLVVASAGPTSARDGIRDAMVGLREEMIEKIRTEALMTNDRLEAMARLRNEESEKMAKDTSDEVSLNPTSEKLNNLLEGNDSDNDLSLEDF

Target: HA-Rab11a (WT) (human) (UniProt P62491)
Assay: co-IP; lysates of A549-HA-Rab11a cells infected with wild type RSV (16 h) incubated overnight at 4°C with Magnetic-HA beads; lysis buffer Tris 25 mM pH 7.2, NaCl 150 mM, IGEPAL CA-630 0.2%, glycerol 10%, EDTA 0.5 mM; wild type A549 cells as control; western blot

For “RSV phosphoprotein P (from UniProt P12579 1-241)”, which binding is on record?
Its binding is “binds”.
